The test is described as follows: qHTS Assay for Lipid Storage Modulators in Drosophila S3 Cells.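 On cell number change: cells counted by Cell Tracker Red CMTPX staining in the red channel.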 The settings on record: BODIPY lipid droplet fluorescence, 18-24 h; for cell number change: measured here: cell count max response, cells fed with added oleic acid. A digest of the protocol: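 Drosophila S3 cells loaded with oleic acid (400 uM, as added) and compounds at several concentrations; lipid droplets imaged by 488-nm laser-scanning cytometry, 500–530 nm intensity and object ratio to cell channel. Percent activity normalized to 20 uM Triacsin C.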

Setting [1] is: measured here: cell number channel AC50, cells fed with added oleic acid.
[2] abbreviates: measured here: lipid fluorescence (Fed channel) AC50, cells fed with added oleic acid.

This is one part of the list. Further columns of the screen follow, without active or inactive calls. Most of these compounds were active or inconclusive in the main read-out, so they are no random draw. Words in brackets tell the shape of the fitted curve; partial curves, single points and poor fits give uncertain potencies.

The term AC50 denotes the concentration at which the activity in the assay is half-maximal. Read a high AC50 as weaker potency.

Regarding `Nc1ccccc1C(=O)N=Nc1[nH]c(N)c2ccccc12`, the cell number change is -1.25%.
In the case of `CCC(C)c1ccc(S(=O)(=O)N2CCN(C(=O)COc3ccc4c(C)cc(=O)oc4c3)CC2)cc1` (centres undefined), the cell number change was found to be 121%. The AC50 under setting [1] is 29.1 µM [rising, single point]. The AC50 under setting [2] was 5.17 µM [rising, full curve].
Regarding `Cc1ccc(C(=O)Nc2sc(C(=O)N(C)C)c(C)c2C#N)cc1`, the cell number change was found to be 33.3%. The AC50 under setting [1] is 18.4 µM [rising, single point]. Also, under setting [2], the AC50 is 3.26 µM [falling, full curve, poor fit].
With `CC(Oc1ccc(Br)cc1)C(=O)NCc1ccccn1` (centres undefined), the cell number change worked out at 91.4%. Moreover, the AC50 under setting [1] was 20.6 µM [rising, partial curve].
With `Cc1csc(NC(=O)c2ccc(COc3ccccc3)o2)n1`, the cell number change is 20.4%. Also, the AC50 under setting [2] is 0.13 µM [falling, full curve].
With `Cc1cc(C(=O)CN2C(=O)NC3(CCC(C)CC3)C2=O)c(C)n1C` (centres undefined), the cell number change came to 2.62%. Moreover, the AC50 under setting [2] was 0.259 µM [falling, partial curve].
As for `Cc1cc(C)c2c3c(sc2n1)C(c1ccccc1)C(C#N)=C(N)O3` (centres undefined), the cell number change came to 56.9%.
On to `NC12CC3CC(C1)CC(O)(C3)C2`, for which the cell number change is -49.6%. Further, the AC50 under setting [1] is 4.11 µM [falling, full curve]. The concentration at half-maximal activity (AC50) under setting [2] is 14.6 µM [falling, partial curve].
With `COc1ccccc1N1CCN(c2nc3ccccc3nc2C(C#N)C(=O)OC(C)C)CC1` (centres undefined), the cell number change is -11.1%. For the same compound, the AC50 under setting [1] is 1.64 µM [rising, partial curve]. Moreover, the AC50 under setting [2] was 1.84 µM [rising, partial curve].
For the compound `CCCn1c2ccccc2c2cnn(CC(=O)NC3CCCC(C)C3C)c(=O)c21` (centres undefined), the AC50 under setting [1] is 3.66 µM [rising, single point].
As to `CCN(CC)C(=O)c1cc2c(=O)n3cccc(C)c3nc2n1C`, the cell number change turned out to be 21.7%. For the same compound, the AC50 under setting [2] was 20.6 µM [rising, single point].
As to `COc1cc2c(cc1OC)CN(c1ccc([N+](=O)[O-])cc1C#N)CC2`, the cell number change worked out at 7.32%. The concentration at half-maximal activity (AC50) under setting [2] is 5.8 µM [rising, full curve, poor fit].
With `Cc1cc2ncc(S(C)(=O)=O)c(N)n2n1`, the cell number change is 30.8%. In addition, under setting [1], the AC50 is 20.6 µM [rising, partial curve, poor fit].
Take `O=C(CSc1nnc(Cc2cc(=O)[nH]c(=O)[nH]2)n1-c1ccccc1)N1CCCCC1`: the cell number change worked out at 9.62%.
`O=C(CNCc1cccc(Cl)c1)N1CCc2ccccc2C1`: the cell number change is 145%. The AC50 under setting [1] was 16.4 µM [rising, partial curve]. Moreover, under setting [2], the AC50 is 29.1 µM [rising, single point].
`Cc1ccc(Nc2nc3nonc3[nH]c2=O)cc1C`: the cell number change came out at 3.74%. Besides, the concentration at half-maximal activity (AC50) under setting [2] is 29.1 µM [falling, single point].
Turning to `Cc1ccccc1C(=O)c1cccn1CC(=O)NCc1ccc2c(c1)OCO2`, the cell number change worked out at 21.8%. Besides, under setting [2], the AC50 was 6.51 µM [falling, single point].
In the case of `O=C(COC(=O)c1ccc(S(=O)(=O)NCc2ccco2)cc1)Nc1ccc(Cl)cn1`, the cell number change came to 89.2%. In addition, the AC50 under setting [1] is 23.1 µM [rising, partial curve].
As to `COc1ccc(S(=O)(=O)Nc2cccc(S(=O)(=O)N3CCCC3)c2)cc1OC`, the cell number change amounted to 100%. Further, the AC50 under setting [1] was 18.4 µM [rising, single point].
`CCOc1ccc(-n2cc(C(=O)NCCOC)c3cc(OC)c(OC)cc3c2=O)cc1`: the cell number change came to 31.4%. Moreover, the AC50 under setting [1] was 20.6 µM [rising, single point].
For `CCN(Cc1ccncc1)C(=O)c1ccccc1NS(=O)(=O)c1ccc(Br)cc1`, the cell number change was -3.52%. Further, under setting [2], the AC50 was 4.11 µM [rising, full curve, poor fit].
Regarding `C#CCn1c(=NC(=O)CN2C(=O)CCC2=O)sc2cccc(C)c21`, the cell number change amounted to 4.79%. Moreover, the AC50 under setting [2] was 0.259 µM [falling, full curve, poor fit].
With `NS(=O)(=O)c1ccc(NC(=O)CSc2nnc(COc3ccccc3Cl)n2C2CC2)cc1`, the cell number change was -49.3%. Further, under setting [1], the AC50 was 25.9 µM [falling, single point].
Regarding `Cc1cc(/C=C2\SC(=S)N(C)C2=O)c(C)n1-c1cccc(O)c1`, the cell number change is -2.45%.
With `CCN(CC(=O)NCc1cccs1)c1ccc(S(=O)(=O)N2CCCC2)cn1`, the cell number change came to 16.5%. In addition, the AC50 under setting [1] was 0.00517 µM [rising, full curve, poor fit]. The AC50 under setting [2] is 2.31 µM [falling, single point].
`Cc1ccc(Nc2nc(N)nc(CC#N)n2)cc1`: the AC50 was 3.26 µM [rising, partial curve] under setting [1] and 2.06 µM [rising, partial curve] under setting [2].
Take `CCOc1cc(-c2nc(-c3ccc(C)nc3OC)no2)cc(OCC)c1OCC`: the cell number change is -2.03%. For the same compound, the AC50 under setting [2] is 0.291 µM [rising, partial curve].
Regarding `CN1CCN(CCNC(=O)c2ccc3nc(-c4ccc(F)cc4)c(-c4ccc(F)cc4)nc3c2)CC1`, the cell number change was -17%. Besides, the AC50 under setting [2] is 1.16 µM [rising, full curve].
For `Cc1ccc(C(=O)OCC(=O)Nc2sc3c(c2C#N)CCCC3)cc1NC(=O)c1ccco1`, the cell number change came out at 60%. Also, under setting [1], the AC50 is 1.84 µM [rising, full curve].
On to `NCC(=O)Nc1ccc(Cl)cc1C(=O)c1ccc[nH]1`, for which the cell number change was -21%. Further, under setting [2], the AC50 was 29.1 µM [rising, partial curve].
With `COc1ccc([C@H]2CC(=O)C=C(c3ccc4ncccc4c3)C2)cc1`, the cell number change is -31.3%. Further, under setting [1], the AC50 is 1.64 µM [falling, partial curve].
For `Cc1cccc(-c2nnc3n2N=C(c2ccccc2)CS3)c1`, the cell number change came out at 5.42%.
Take `Cc1ccc(-c2n[nH]c3c2C(c2ccccc2)N(c2ccc(C(=O)O)cc2)C3=O)cc1` (centres undefined): the cell number change was -14.9%.
As to `CCOc1ccc2nc(N3CCC(C(=O)N4CCN(C5CCCCC5)CC4)CC3)sc2c1`, the cell number change is -16.1%. Also, under setting [2], the concentration at half-maximal activity (AC50) is 9.2 µM [falling, partial curve, poor fit].
In the case of `Cc1ccsc1/C=N/N=C1\C(=O)Nc2ccccc21`, the AC50 under setting [2] is 3.26 µM [rising, partial curve].
With `O=C(NCc1ccccc1)c1cnc(-c2ccccn2)nc1C(F)(F)F`, the cell number change came out at 10.8%.
For `Cc1ccc(-c2csc(NC(=O)CSc3nnc4c(n3)[nH]c3ccccc34)n2)cc1`, the cell number change was -41.4%. The AC50 under setting [1] is 29.1 µM [falling, single point]. In addition, the AC50 under setting [2] is 32.6 µM [falling, single point].
With `Cc1ccc(Nc2nc(-c3ccc(F)cc3)cs2)nc1`, the cell number change turned out to be 21.1%. Further, under setting [2], the AC50 is 6.51 µM [falling, single point].

Values taken from PubChem BioAssay AID2685 (National Center for Advancing Translational Sciences (NCATS), 2010).
